Two molecules from article PMC13164374 can be followed below.

Chains of the proteins cited; added tags and fusions are not shown.
UniProt Q99729: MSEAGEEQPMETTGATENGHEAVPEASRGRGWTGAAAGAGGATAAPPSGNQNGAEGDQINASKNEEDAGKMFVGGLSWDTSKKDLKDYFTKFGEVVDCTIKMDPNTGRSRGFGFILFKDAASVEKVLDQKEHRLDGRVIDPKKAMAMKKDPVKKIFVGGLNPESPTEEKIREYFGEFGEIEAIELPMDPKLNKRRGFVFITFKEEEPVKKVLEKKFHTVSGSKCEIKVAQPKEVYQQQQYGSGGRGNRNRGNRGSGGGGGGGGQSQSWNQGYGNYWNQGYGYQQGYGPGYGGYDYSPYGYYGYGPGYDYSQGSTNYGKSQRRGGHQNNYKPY

This assay deals with T1, GFP-tagged ADAR1p110 (UniProt P55265).
T1 sequence: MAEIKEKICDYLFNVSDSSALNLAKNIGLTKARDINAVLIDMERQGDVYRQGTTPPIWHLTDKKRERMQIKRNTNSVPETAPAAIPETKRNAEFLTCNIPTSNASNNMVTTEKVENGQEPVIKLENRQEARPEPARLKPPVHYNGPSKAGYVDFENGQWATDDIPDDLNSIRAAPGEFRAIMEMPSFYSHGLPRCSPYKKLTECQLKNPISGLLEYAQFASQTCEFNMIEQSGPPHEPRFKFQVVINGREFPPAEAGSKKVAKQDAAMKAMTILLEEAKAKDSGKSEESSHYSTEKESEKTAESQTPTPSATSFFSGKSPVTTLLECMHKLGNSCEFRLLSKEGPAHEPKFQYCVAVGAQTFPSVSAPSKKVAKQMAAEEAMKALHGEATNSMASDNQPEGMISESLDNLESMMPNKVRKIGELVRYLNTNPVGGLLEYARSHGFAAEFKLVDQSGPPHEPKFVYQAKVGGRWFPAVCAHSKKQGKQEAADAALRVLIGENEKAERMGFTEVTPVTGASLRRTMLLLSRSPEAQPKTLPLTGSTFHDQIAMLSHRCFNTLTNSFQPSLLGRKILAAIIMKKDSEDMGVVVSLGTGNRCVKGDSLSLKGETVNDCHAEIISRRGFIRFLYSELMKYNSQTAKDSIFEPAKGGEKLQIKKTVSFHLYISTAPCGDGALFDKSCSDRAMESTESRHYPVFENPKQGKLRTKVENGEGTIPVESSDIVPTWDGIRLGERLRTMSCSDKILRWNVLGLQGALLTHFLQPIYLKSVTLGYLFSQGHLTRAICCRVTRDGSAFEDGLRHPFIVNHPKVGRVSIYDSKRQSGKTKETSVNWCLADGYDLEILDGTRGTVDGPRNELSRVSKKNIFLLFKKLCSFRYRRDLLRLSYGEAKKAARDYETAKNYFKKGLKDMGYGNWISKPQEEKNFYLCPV
Put plainly: co-IP; GFP-trap beads on lysate of HeLa cells overexpressing ADAR1p110-GFP or GFP; lysis buffer 10 mM Tris/Cl pH 7.5, 150 mM NaCl, 0.5 mM EDTA, 0.5% Triton X, with 250 units Benzonase; 4 h at 4 °C; beads boiled; Western blot. For orientation: Immunoblotting shows a protein as a band on a membrane.

Results are given in words; binding and its absence hold for the method and conditions named. Binding seen in cells or lysates may run through a third protein. Some results given as binding are weak or reduced against the parent protein; the word gives no strength. Sequences can lack the tags named with a protein.

Regarding HNRNPA/B (from UniProt Q99729 1-332), the binding result was “binds”.

B1: HNRNPL (protein, UniProt P14866 1-589)
chain: MSRRLLPRAEKRRRRLEQRQQPDEQRRRSGAMVKMAAAGGGGGGGRYYGGGSEGGRAPKRLKTDNAGDQHGGGGGGGGGAGAAGGGGGGENYDDPHKTPASPVVHIRGLIDGVVEADLVEALQEFGPISYVVVMPKKRQALVEFEDVLGACNAVNYAADNQIYIAGHPAFVNYSTSQKISRPGDSDDSRSVNSVLLFTILNPIYSITTDVLYTICNPCGPVQRIVIFRKNGVQAMVEFDSVQSAQRAKASLNGADIYSGCCTLKIEYAKPTRLNVFKNDQDTWDYTNPNLSGQGDPGSNPNKRQRQPPLLGDHPAEYGGPHGGYHSHYHDEGYGPPPPHYEGRRMGPPVGGHRRGPSRYGPQYGHPPPPPPPPEYGPHADSPVLMVYGLDQSKMNCDRVFNVFCLYGNVEKVKFMKSKPGAAMVEMADGYAVDRAITHLNNNFMFGQKLNVCVSKQPAIMPGQSYGLEDGSCSYKDFSESRNNRFSTPEQAAKNRIQHPSNVLHFFNAPLEVTEENFFEICDELGVKRPSSVKVFSGKSERSSSGLLEWESKSDALETLGFLNHYQMKNPNGPYPYTLKLCFSTAQHAS
Consider B1, for which the binding result is on record as “binds”.
